Paper PMC4552788

Chains of the proteins cited; added tags and fusions are not shown.
UniProt Q9S7R5: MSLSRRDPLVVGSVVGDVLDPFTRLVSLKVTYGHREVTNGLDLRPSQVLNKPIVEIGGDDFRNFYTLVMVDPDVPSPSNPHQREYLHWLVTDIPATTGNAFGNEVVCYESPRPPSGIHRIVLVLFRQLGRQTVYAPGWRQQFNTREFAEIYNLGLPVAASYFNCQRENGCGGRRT
UniProt Q93WI9: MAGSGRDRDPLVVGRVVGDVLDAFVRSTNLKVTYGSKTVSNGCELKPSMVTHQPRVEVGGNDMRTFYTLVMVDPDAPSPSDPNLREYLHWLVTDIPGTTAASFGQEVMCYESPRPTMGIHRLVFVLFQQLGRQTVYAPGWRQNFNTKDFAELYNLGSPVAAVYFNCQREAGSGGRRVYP
UniProt Q8VWH2: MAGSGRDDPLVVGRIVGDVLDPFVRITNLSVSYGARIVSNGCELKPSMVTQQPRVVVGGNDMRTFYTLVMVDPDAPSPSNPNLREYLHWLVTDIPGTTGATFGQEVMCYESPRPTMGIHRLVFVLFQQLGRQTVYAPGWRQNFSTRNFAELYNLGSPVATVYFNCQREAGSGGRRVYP
UniProt Q9SXZ2: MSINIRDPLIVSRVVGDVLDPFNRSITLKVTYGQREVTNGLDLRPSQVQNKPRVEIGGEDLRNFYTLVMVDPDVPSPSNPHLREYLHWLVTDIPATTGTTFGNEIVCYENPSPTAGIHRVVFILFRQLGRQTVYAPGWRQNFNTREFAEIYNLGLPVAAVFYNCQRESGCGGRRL

Legend:
[1] = molecular target: PaFT1 (Phalaenopsis aphrodite FLOWERING LOCUS T1), yeast two-hybrid bait pBD:PaFT1 (Phalaenopsis aphrodite subsp. formosana); assay: two-hybrid; library screen in yeast: bait pBD:PaFT1 (pBD-GAL4 Cam) against a GAL4 AD cDNA library from young spikes of P. aphrodite subsp. formosana; X-gal filter assay
[2] = molecular target: AtTSF, yeast two-hybrid fusion (Arabidopsis) (UniProt Q9S7R5); assay: two-hybrid; directed test of pairs in yeast (Fig 7B): FT proteins against pAD:PaFD, its deletion and point mutants; AtFT with AtFD as positive control
[3] = molecular target: Hd3a (Heading date3a), yeast two-hybrid fusion (rice) (UniProt Q93WI9); assay: as above
[4] = molecular target: RFT1, yeast two-hybrid fusion (rice) (UniProt Q8VWH2); assay: as above
[5] = molecular target: OnFT (Oncidium orchid FT), yeast two-hybrid fusion (Oncidium Gower Ramsey) (UniProt B2LU35); assay: as above
[6] = molecular target: AtFT (Arabidopsis FLOWERING LOCUS T), yeast two-hybrid fusion (Arabidopsis) (UniProt Q9SXZ2); assay: as above
[7] = molecular target: PaFT1 (Phalaenopsis aphrodite FLOWERING LOCUS T1), yeast two-hybrid bait pBD:PaFT1 (Phalaenopsis aphrodite subsp. formosana); assay: as above

Measured: binding

PaFD, yeast two-hybrid prey pAD:PaFD (from UniProt A0A0N7AL13)
binds: all assays above

These are yes or no findings as the source states them, for the method shown. A result given as binding can be weak or reduced; the word gives no strength.
